PubChem BioAssay AID504786, Drosophila RNAi Screening Center, 2011
The screen tested about 21,000 reagents; this is an unselected part of those that have a named target and a result. 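Primary screen; positive scores mean lost reporter signal, so the sign may be inverted from the usual convention.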 Reagents against one gene are numbered here. A plus sign joins genes that one reagent is predicted to hit.

Test: 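Knock-downs reducing HIF reporter induction by the iron chelator DFO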 (primary screen)
Cell system: Drosophila S2 cells with a stable HIF luciferase reporter
Knock-down reagent: long dsRNA against Drosophila genes, about 0.2 µg dsRNA per well of a 384-well plate
Duration: three days of knock-down, then 20 h of DFO before reading
Treatment: desferrioxamine (DFO) at 100 µM, an iron chelator that mimics hypoxia, for 20 h
Measured: 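HIF reporter luminescence in cells given 100 µM DFO for 20 h, using the mouse ldh-a hypoxia-response element, scored as per-plate z-scores; higher means greater loss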
Direction: z-score: higher = stronger loss of HIF reporter signal

Target gene | reagent | z-score, replicate 1 | z-score, replicate 2 | z-score, replicate 3 | z-score, replicate 4
CG7248 | 1 | -0.3 | -0.8 | – | –
Acp65Aa | 1 | -0.4 | -0.8 | – | –
CG8641 | 1 | -0.4 | -0.5 | – | –
mex1 | 1 | -0.4 | 0.1 | – | –
sol | 1 | -0.3 | 0.1 | – | –
mRpL39 | 1 | 1.9 | 2.3 | – | –
Prp5 | 1 | 0.2 | 0.7 | – | –
blot | 1 | 0.5 | -0.3 | – | –
blot | 2 | -0.4 | -0.6 | – | –
CG5641 | 1 | -0.3 | -0.4 | – | –
CG1273 | 1 | -0.4 | -0.4 | – | –
axed | 1 | -0.3 | -0.5 | – | –
axed | 2 | -0.3 | -0.6 | – | –
nis | 1 | 0.9 | 0.7 | – | –
Ir64a | 1 | 0.4 | 0.1 | – | –
Ir64a | 2 | -0.4 | -0.8 | – | –
CG5895 | 1 | -0.2 | 0 | – | –
tctn + B9d2 | 1 | -0.3 | -0.2 | – | –
CG12460 (retired record) | 1 | -0.4 | -1.2 | – | –
Est-Q | 1 | -0.3 | -0.3 | – | –
tko | 1 | 1.2 | 0 | – | –
Pfdn6 | 1 | -0.3 | -0.7 | – | –
CG32564 | 1 | -0.4 | -0.5 | – | –
Tdg | 1 | -0.2 | 0.3 | – | –
Tdg | 2 | -0.3 | -0.9 | – | –
comm | 1 | -0.4 | 0.1 | – | –
Vmat + CG13330 | 1 | 0.9 | -0.6 | – | –
CG11257 | 1 | -0.4 | -0.4 | – | –
CG8142 | 1 | -0.2 | 0.1 | – | –
CG5321 | 1 | -0.3 | 0.4 | – | –
TP53INP | 1 | -0.3 | -0.3 | 0 | -0.3
cona | 1 | -1 | -0.5 | – | –
Cpr67Fa2 | 1 | -0.1 | -0.4 | – | –
Jabba | 1 | 0 | 0.1 | – | –
CG32846 | 1 | -0.2 | -0.2 | – | –
CG4988 | 1 | -0.1 | -0.1 | – | –
gry | 1 | 0 | -0.5 | – | –
gry | 2 | -0.4 | -0.4 | – | –
CG43896 | 1 | 0.1 | -0.2 | – | –
PIG-T | 1 | -0.3 | -0.6 | – | –
CG7564 | 1 | -0.2 | -0.1 | – | –
CG14115 | 1 | 0.3 | -0.2 | – | –
CG32772 | 1 | -0.4 | -0.5 | 4.6 | 2.6
CG32772 | 2 | -0.3 | -0.2 | – | –
TER94 | 1 | 4.5 | 3.9 | – | –
hdm | 1 | -0.3 | -0.2 | – | –
Prosbeta4R1 | 1 | -0.2 | 0 | – | –
sgll | 1 | -0.2 | -0.2 | – | –
CG33722 + CG18749 | 1 | -0.2 | -0.3 | – | –
CG33722 + CG18749 | 2 | -0.1 | 0.3 | – | –
Hsp67Bc | 1 | -0.2 | -0.1 | – | –
CG17637 | 1 | -0.2 | -0.6 | – | –
kni | 1 | 0.1 | -0.4 | – | –
CG9825 | 1 | -0.2 | -0.5 | – | –
CG14072 | 1 | -0.3 | -0.4 | – | –
eIF3k | 1 | -0.5 | -1 | – | –
CG6180 | 1 | -0.3 | -0.4 | – | –
CG10359 | 1 | -0.4 | -0.6 | – | –
CG11227 | 1 | -0.2 | -0.5 | – | –
CG32281 | 1 | -0.1 | -0.3 | – | –
Fam92 | 1 | -0.2 | 0 | – | –
CG14401 | 1 | -0.2 | -0.4 | – | –
Amnionless | 1 | -0.3 | -0.5 | – | –
CG11779 | 1 | 0.4 | 0.9 | – | –
emp | 1 | 0 | -0.1 | – | –
emp | 2 | -0.2 | 0.1 | – | –
Est-6 | 1 | -0.3 | -0.4 | – | –
MFS9 | 1 | -0.3 | -0.2 | – | –
CG13560 | 1 | -0.4 | -0.1 | – | –
Acat2 | 1 | -0.5 | -0.8 | – | –
CG14006 | 1 | -0.2 | -0.4 | – | –
Ptip | 1 | -0.3 | -0.6 | – | –
Ptip | 2 | 1.2 | 0.4 | – | –
CG7715 | 1 | -1 | -0.2 | – | –
Sry-delta | 1 | -0.1 | -0.6 | – | –
Sox21b | 1 | -0.2 | -0.4 | 1.5 | 0.2
Sox21b | 2 | 0.6 | -0.6 | – | –
CG14811 | 1 | -0.3 | -0.2 | – | –
CG15729 (retired record) | 1 | 0.1 | 0.7 | – | –
ana3 | 1 | 0 | 0 | – | –
CG12107 | 1 | -0.4 | -0.4 | – | –
Hacl | 1 | -0.2 | 0.5 | – | –
ND-24L | 1 | 0 | -0.1 | – | –

Reformatted: 13 of the entries above
{"Target gene": "CG12460 (retired record)", "reagent": 1, "z-score, replicate 1": -0.4, "z-score, replicate 2": -1.2}
{"Target gene": "Est-Q", "reagent": 1, "z-score, replicate 1": -0.3, "z-score, replicate 2": -0.3}
{"Target gene": "tko", "reagent": 1, "z-score, replicate 1": 1.2, "z-score, replicate 2": 0}
{"Target gene": "Pfdn6", "reagent": 1, "z-score, replicate 1": -0.3, "z-score, replicate 2": -0.7}
{"Target gene": "CG32564", "reagent": 1, "z-score, replicate 1": -0.4, "z-score, replicate 2": -0.5}
{"Target gene": "Tdg", "reagent": 1, "z-score, replicate 1": -0.2, "z-score, replicate 2": 0.3}
{"Target gene": "Tdg", "reagent": 2, "z-score, replicate 1": -0.3, "z-score, replicate 2": -0.9}
{"Target gene": "comm", "reagent": 1, "z-score, replicate 1": -0.4, "z-score, replicate 2": 0.1}
{"Target gene": "Vmat + CG13330", "reagent": 1, "z-score, replicate 1": 0.9, "z-score, replicate 2": -0.6}
{"Target gene": "CG11257", "reagent": 1, "z-score, replicate 1": -0.4, "z-score, replicate 2": -0.4}
{"Target gene": "CG8142", "reagent": 1, "z-score, replicate 1": -0.2, "z-score, replicate 2": 0.1}
{"Target gene": "CG5321", "reagent": 1, "z-score, replicate 1": -0.3, "z-score, replicate 2": 0.4}
{"Target gene": "TP53INP", "reagent": 1, "z-score, replicate 1": -0.3, "z-score, replicate 2": -0.3, "z-score, replicate 3": 0, "z-score, replicate 4": -0.3}
